The source of these data is US20070269422A1.

Results are given in words; binding and its absence hold for the method and conditions named. Some results given as binding are weak or reduced against the parent protein; the word gives no strength.

The target in the test is mouse serum albumin (mouse), P07724. Description: SPR (Biacore 3000), albumin on CM5 chip, one concentration, koff ranking. The settings on record: remark: other sources report otherwise.

B1: PMP6G7 (VHH)
VHH: QVQLVESGGGLVQPGGSLRLSCAASGFTFSNYWMYWVRVAPGKGLERISRDISTGGGYSYYADSVKGRFTISRDNAKNTLYLQMNSLKPEDTALYYCAKDREAQVDTLDFDYRGQGTQVTVSS
On to B1, for which the binding entry was “binds”.
